# Measured values as given in PubChem BioAssay AID1487 (National Center for Advancing Translational Sciences (NCATS), 2009).
# The list shows a part of the results. The main result of the screen is listed elsewhere. These columns were measured beside it and carry no call. The list favours compounds with an active or inconclusive main result. The note in brackets gives the kind of curve behind each potency; many fits are weak.
# Assay: qHTS Assay for Modulators of Lamin A Splicing
# Details: HeLa LMNA splicing GFP/RFP minigene ratio, 48 h
# Procedure, shortened: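 S3 HeLa stable clones carrying a lamin A-EGFP splicing minigene plus DsRed2 were seeded at 600 cells/well in Opti-MEM with 2% FBS, pin-dosed and incubated 48 h at 37°C. Acumen cytometry (488 nm) gave the GFP/RFP total-intensity ratio.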
# [1] = measured here: GFP splicing reporter channel
# [2] = measured here: RFP viability control channel
SMILES,AC50 [1],AC50 [2]
O=C1c2cnc3nc(SCc4ccc(Cl)cc4)nn3c2CC2c3ccccc3CCN12 (stereo not given),"20 µM [rising, single point]",
CCCC(=O)Nc1ccc(NC(=S)NC(=O)c2ccccc2[N+](=O)[O-])cc1,,"22.4 µM [rising, single point]"
CNC(=O)/C(C#N)=C/c1ccc(-c2ccc(Cl)cc2)o1,,"12.6 µM [falling, partial curve, poor fit]"
CCN(CC)S(=O)(=O)c1cc(NC(=O)C(=O)c2c(-c3ccccc3)cc3ccccn23)ccc1C,,"12.6 µM [rising, partial curve]"
CCOC(=O)c1c(NC(=O)CSC(=S)N(C)C)sc(C)c1C,"12.6 µM [rising, partial curve]","20 µM [rising, partial curve, poor fit]"
CC(C)=NNc1nc(-c2ccccc2)cs1,,"35.5 µM [rising, single point]"
CCCC1=Nc2cc(C(=O)NCCCOC(C)C)ccc2Sc2ccccc21,,"7.08 µM [rising, partial curve]"
Cc1ccc(-c2noc(CN3CCN(Cc4ccccc4)CC3)n2)cc1,,"35.5 µM [rising, single point]"
CCNC(=S)NNC(=O)c1csc2c1CCCC2,"3.55 µM [falling, single point]",
COc1ccccc1NS(=O)(=O)c1ccc(C)c(NC(=O)c2ccc(S(=O)(=O)N3CCCCCC3)cc2)c1,,"3.98 µM [rising, full curve]"
O=C(c1ccc2c(c1)N(Cc1cccc(Cl)c1)C(=O)c1ccccc1S2(=O)=O)N1CCCCCC1,"22.4 µM [falling, partial curve, poor fit]","28.2 µM [falling, partial curve]"
Cc1onc(-c2ccccc2Cl)c1C(=O)Nc1ccccc1C(=O)NC(C)C,"11.2 µM [rising, partial curve]","11.2 µM [rising, partial curve]"
CCOc1cc(CNc2ccc(S(N)(=O)=O)cc2)cc(Cl)c1OC,,"35.5 µM [rising, single point]"
NNC(=O)CNC(c1ccccc1)c1cc(Br)ccc1NC(=O)CCN1CCOCC1 (stereo not given),"35.5 µM [falling, single point]","35.5 µM [falling, single point]"
C=CCn1c(SCC(=O)Nc2sccc2C(N)=O)nc2sc(CC)cc2c1=O,,"6.31 µM [rising, partial curve, poor fit]"
COc1ccc(CCNC(=O)NC23CC4CC(CC(C4)C2)C3)cc1,,"35.5 µM [rising, single point]"
